66 compounds from PubChem BioAssay AID493014 (National Center for Advancing Translational Sciences (NCATS), 2011) can be followed below.

“And” between values parts separate entries of the source, which are not always exact repeats. Identical values can stand only once. Some of the results follow. Shown are side measurements of this screen, not its main read-out; they come without a call. The list favours compounds with an active or inconclusive main result. Potencies come from curve fits of mixed quality, noted in brackets.

The nature of the test: qHTS Assay to Find Inhibitors of Chronic Active B-Cell Receptor Signaling. As to conditions: ABC-DLBCL IkBa-CBG/CBR reporter, luminescence ratio (green luciferase fused to IkBa over red control in TMD8 lymphoma cells), 4 h. An outline of the steps:
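Cell line TMD8 (human ABC DLBCL), stably expressing tet-inducible CBG68-IkBa fusion and CBR; IMDM/0.5% FBS; cpd up to 46 uM; dox induction, 4 h, 37C/5% CO2; dual luminescence; green/red ratio; MG132 control.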
For orientation: In qHTS, concentration-response curves come from the screen itself.

Setting [1] is: measured here: CBR red luminescence, cell number.
Where [2] appears, read: measured here: IkBa-CBG green luminescence.

`CCOC(=O)c1nc(S(C)(=O)=O)ncc1Cl`: the AC50 under setting [1] is 35.5 µM [falling, single point].
For the compound `CN(C)CCCNCC(=O)c1c(-c2ccccc2)n(C)c2ccccc12`, the AC50 under setting [2] was 17.8 µM [falling, single point].
Take `COc1ccccc1C1=NC(c2ccc(C)cc2)N=C1C` (stereo not drawn): under setting [1], the AC50 was 12.6 µM [falling, single point].
Turning to `O=C(Nc1ccc(CN2CCCCC2)cc1)c1cc(Br)ccc1Cl`, the AC50 under setting [1] was 0.891 µM [rising, full curve, poor fit].
Same read-out and setting: then `Cc1ccc(CSc2nnc(-c3ccccn3)n2N)cc1`, with 7.94 µM [falling, partial curve].
For the compound `Cc1cc(NC2CCCC2)n2nc(C)c(-c3ccccc3)c2n1`, under setting [1], the AC50 is 20 µM [falling, single point].
As for `Cc1cc(-c2csc(Nc3ccccn3)n2)ccc1F`, the AC50 under setting [1] is 4.47 µM [falling, partial curve].
Same read-out and setting: the figure for `CCOC(=O)c1c(NC(=O)C2C3C=CC(C3)C2C(=O)O)sc2c1CCC(CC)C2` (stereo not drawn) is 29.1 µM [falling, single point]; for `Nc1c(NCCN2CCOCC2)c2ccccc2oc1=O` it is 11.6 µM [falling, partial curve]; for `Cc1nc(SCC(=O)Nc2nccs2)c(C#N)c(C)c1C` it is 2.06 µM [falling, partial curve, poor fit].
Consider `O=C(CNc1cccc2ccccc12)N/N=C/c1ccc[nH]1`, for which, under setting [1], the AC50 was 15.8 µM [rising, single point].
As to `CCS(=O)(=O)c1ncc(Cl)c(C(=O)Nc2ccc(S(=O)(=O)N3CCCC(C)C3)cc2)n1` (stereo not drawn), under setting [1], the AC50 was 22.4 µM [falling, single point].
In the case of `Cc1cc(N2CCN(Cc3cn(C)nc3-c3ccccc3F)CC2)cc(C)n1`, under setting [1], the AC50 was 6.31 µM [falling, partial curve, poor fit].
`O=C(Nc1ccc(Cl)cc1)Nc1ccccn1`: the AC50 under setting [1] is 1 µM [rising, full curve, poor fit].
For the compound `O=C(NCc1cccs1)C1CC(c2ccc(F)cc2)=NO1` (stereo not drawn), under setting [1], the AC50 was 11.2 µM [falling, partial curve, poor fit].
Same read-out and setting: the figure for `Cc1cccc(Oc2cc(NC(=O)c3ccccc3)cc([N+](=O)[O-])c2)c1` is 8.91 µM [falling, partial curve, poor fit].
Same read-out and setting: the figure for `O=C(Nc1ccc(Cl)cn1)c1ccc(COc2ccccc2Br)o1` is 35.5 µM [falling, single point]; for `Cc1cc(C)c(NC(=O)CNC(=O)COC(=O)Cc2ccccc2C)c(C)c1` it is 32.6 µM [rising, partial curve, poor fit]; for `Cn1c(Sc2ccccc2Cl)c(C=O)c2ccccc21` it is 5.01 µM [falling, single point].
On to `COc1ccc(CNCC(=O)Nc2sccc2C#N)cc1`, for which the AC50 under setting [1] was 0.1 µM [rising, full curve, poor fit].
On to `Nc1nonc1-n1nnc(C(=O)N/N=C/c2ccc(O)cc2)c1COc1ccc(F)cc1`, for which the AC50 by setting is: under setting [1], 22.4 µM [falling, single point]; under setting [2], 35.5 µM [rising, partial curve, poor fit].
`O=C1CCCC/C1=C/NCc1ccc(F)cc1`: the AC50 under setting [1] is 10 µM [rising, single point].
Consider `CC1CCC/C(=N\NC(=O)c2ccncc2)C1` (stereo not drawn), for which the AC50 under setting [1] was 3.66 µM [rising, single point].
Regarding `O=C(CN1C(=O)S/C(=C/c2ccc(N3CCOCC3)cc2)C1=O)N1CCOCC1`, the AC50 under setting [1] is 2.91 µM [rising, full curve, poor fit].
On to `Cc1ccc(OCCN2CCN(c3ncnc4sc(C)c(C)c34)CC2)cc1`, for which, under setting [1], the AC50 was 9.2 µM [rising, single point].
On to `COC(=O)c1sc(NC(=O)COc2ccc(C)cc2)nc1C`, for which, under setting [1], the AC50 was 1.84 µM [falling, full curve].
Regarding `NS(=O)(=O)OCCCCCc1ccccc1`, under setting [1], the AC50 was 2.82 µM [rising, full curve].
For `O=C(NCc1ccc(C(=O)O)cc1)OCc1ccccc1`, the AC50 under setting [1] was 17.8 µM [falling, single point].
On to `Cc1csc2nc(SCC(=O)N3CCN(c4ccccc4)CC3)[nH]c(=O)c12`, for which the AC50 under setting [1] was 3.98 µM [rising, partial curve, poor fit].
Same read-out and setting: then `Cc1cccc(C)c1Nc1nnc(SCC(=O)c2ccc(Br)s2)s1`, with 18.4 µM [falling, single point]; and `COc1ccccc1N1CCN(C(=O)c2ccc(-c3nc4ccccc4s3)o2)CC1`, with 29.1 µM [falling, single point]; and `Cc1ccccc1N=C1Nc2ccccc2CS1`, with 4.47 µM [rising, single point].
The same measure, in the same setting: the figure for `CCc1ccc(-c2[nH]nc3nc(-c4ccc(OC)cc4)cc(C(=O)NCCCOC)c23)cc1` is 3.98 µM [rising, single point].
On the same count and under the same terms, then `O=C(OCC(=O)N1CCOCC1)c1ccccc1SCC(=O)N1CCCC1`, with 35.5 µM [rising, single point]; and `CC(Oc1ccccc1)C(=O)Nc1nnc(C2CCCCC2)s1` (stereo not drawn), with 0.708 µM [rising, full curve, poor fit].
For the compound `Cc1cc(C)c(S(=O)(=O)Cc2ccccc2)c(=O)[nH]1`, the AC50 under setting [1] is 5.62 µM [falling, single point].
As to `O=C(CC1C(=O)NCCN1C/C=C/c1ccccc1)NCCc1cccnc1` (stereo not drawn), under setting [1], the half-maximal activity concentration (AC50) is 22.4 µM [rising, single point].
As to `COc1ccccc1NC(=O)CSc1nnnn1C1CCCC1`, the AC50 under setting [1] is 3.55 µM [falling, full curve].
With `Cc1c2c(nc3c(C)cccc13)OC(C)C2` (stereo not drawn), the AC50 under setting [1] is 20.6 µM [rising, single point] and the AC50 under setting [2] was 10 µM [falling, partial curve, poor fit].
For the compound `CCOC(=O)c1c(C(C#N)C#N)cc(C)nc1C`, the concentration at half-maximal activity (AC50) under setting [1] is 35.5 µM [rising, partial curve, poor fit].
On to `Cc1ccc(Cc2cnc(NC(=O)c3cccs3)s2)cc1`, for which the half-maximal activity concentration (AC50) under setting [1] is 17.8 µM [falling, single point].
The same measure, in the same setting: the figure for `c1ccc(Nc2nc3ccccc3o2)cc1` is 23.1 µM [falling, single point].
Turning to `COc1cccc(-c2nc(N3CCC(C)CC3)c3ccccc3n2)c1O`, under setting [1], the half-maximal activity concentration (AC50) is 35.5 µM [rising, single point].
For the compound `CCCCOc1ccc(N=Nc2ccc(N)nc2N)cn1`, the AC50 under setting [1] was 1 µM [rising, partial curve, poor fit].
`O=c1c2c(c(-c3ccccc3)nn1Cc1ccccc1)CCCC2`: the AC50 under setting [1] was 14.1 µM [falling, single point].
For the compound `O=C(CSc1nc2nc(-c3cccs3)cc(C(F)(F)F)c2c(=O)[nH]1)C(F)(F)F`, under setting [1], the AC50 was 0.0891 µM [falling, full curve, poor fit].
`Cc1cc(/C=N/NC(=O)c2cccc(F)c2)c(C)n1-c1ccccc1`: the AC50 under setting [1] is 10 µM [falling, partial curve, poor fit].
Regarding `Fc1cnc(N/N=C/c2ccc(-c3ccc(Br)cc3)o2)nc1N1CCOCC1`, under setting [1], the AC50 was 10 µM [falling, partial curve, poor fit].
The same measure, in the same setting: then `COc1ccc(N=C2C(=O)Nc3c(C)cccc32)cc1`, with 5.01 µM [rising, partial curve, poor fit]; and `COc1cccc(/C=N/Nc2nc(N3CCCC3)nc(N3CCCC3)n2)c1O`, with 2 µM [falling, full curve].
Still for that read-out and setting: the figure for `CCN1CCN(CCNC(=O)CSCc2nc(-c3ccc(OC)c(OC)c3)oc2C)CC1` is 14.6 µM [rising, partial curve].
For `CC(=O)c1ccc2c(c1)CC(C)C(=O)N2C` (stereo not drawn), the AC50 under setting [2] is 20.6 µM [falling, partial curve, poor fit].
Take `CC[C@]12c3[nH]c4ccc(OC)cc4c3CCN1C(=O)C(CC(=O)NCC13CC4CC(CC(C4)C1)C3)C[C@@H]2C(=O)N1CCN(C(=O)C2CC2)CC1` (stereo partly drawn): under setting [1], the AC50 was 25.9 µM [falling, single point].
Same read-out and setting: then `O=C(NOCc1ccccc1)c1ccccc1`, with 20.6 µM [falling, single point] and 23.1 µM [falling, partial curve, poor fit].
Take `CCCSc1nsc(NC(=O)C(c2ccccc2)c2ccccc2)n1`: under setting [1], the AC50 was 7.31 µM [falling, partial curve].
As for `Nc1ccc(O)cc1C(=O)OCC(=O)C12CC3CC(CC(C3)C1)C2`, the AC50 under setting [1] is 11.2 µM [falling, partial curve].
Still for that read-out and setting: the figure for `Cn1c(Cl)c(/C=N/OC(=O)C(C)(C)C)c2ccccc21` is 11.2 µM [rising, partial curve, poor fit]; for `O=C(CSc1nc(-c2ccc(F)cc2)cs1)N1CCOCC1` it is 2.06 µM [rising, partial curve, poor fit].
Still for that read-out and setting: the figure for `CCN(C(=O)c1cc2c(s1)-c1ccccc1S(=O)(=O)C2)c1cc(OC)ccc1OC` is 3.98 µM [falling, full curve].
Consider `O=C(NCCN1CCN(Cc2ccc([N+](=O)[O-])cc2)CC1)C(=O)Nc1ccccc1`, for which the AC50 under setting [1] was 25.9 µM [rising, single point].
With `O=C(Nc1nccs1)C1(S(=O)(=O)c2ccc(Cl)cc2)CC1`, the AC50 under setting [1] was 3.16 µM [rising, full curve, poor fit].
Regarding `O=C(CNC(=O)c1ccco1)NCC(=O)OCC(=O)c1ccc(Cl)c([N+](=O)[O-])c1`, under setting [1], the AC50 was 15.8 µM [falling, single point].
With `CC(=O)c1sc(NCCOc2ccc(C)cc2)nc1C`, the AC50 under setting [1] was 0.501 µM [rising, full curve, poor fit].
`Cc1ccc(NC(=O)c2noc3c2CCCCC3)cc1C`: under setting [1], the concentration at half-maximal activity (AC50) is 0.0651 µM [rising, full curve, poor fit].
Turning to `CCCOc1ccc(-c2nc(C#N)c(N3CCN(CC)CC3)o2)cc1`, under setting [1], the AC50 is 15.8 µM [rising, single point].
As to `CNC(=S)N/N=C(\C)c1ccc(Cl)s1`, the AC50 under setting [2] is 9.2 µM [falling, partial curve].

A word on the AC50: it is the midpoint of the concentration-response curve, whichever way the signal moves.
